Assay results from paper PMC6836423.
No constants are given. Whether binding was seen depends on the method and setting. Binding seen in cells or lysates may run through a third protein. Some binding calls cover weakened binding; strength is not graded here.

Molecular target: T1, β-catenin (human (endogenous in MCF-7)), P35222
T1 chain: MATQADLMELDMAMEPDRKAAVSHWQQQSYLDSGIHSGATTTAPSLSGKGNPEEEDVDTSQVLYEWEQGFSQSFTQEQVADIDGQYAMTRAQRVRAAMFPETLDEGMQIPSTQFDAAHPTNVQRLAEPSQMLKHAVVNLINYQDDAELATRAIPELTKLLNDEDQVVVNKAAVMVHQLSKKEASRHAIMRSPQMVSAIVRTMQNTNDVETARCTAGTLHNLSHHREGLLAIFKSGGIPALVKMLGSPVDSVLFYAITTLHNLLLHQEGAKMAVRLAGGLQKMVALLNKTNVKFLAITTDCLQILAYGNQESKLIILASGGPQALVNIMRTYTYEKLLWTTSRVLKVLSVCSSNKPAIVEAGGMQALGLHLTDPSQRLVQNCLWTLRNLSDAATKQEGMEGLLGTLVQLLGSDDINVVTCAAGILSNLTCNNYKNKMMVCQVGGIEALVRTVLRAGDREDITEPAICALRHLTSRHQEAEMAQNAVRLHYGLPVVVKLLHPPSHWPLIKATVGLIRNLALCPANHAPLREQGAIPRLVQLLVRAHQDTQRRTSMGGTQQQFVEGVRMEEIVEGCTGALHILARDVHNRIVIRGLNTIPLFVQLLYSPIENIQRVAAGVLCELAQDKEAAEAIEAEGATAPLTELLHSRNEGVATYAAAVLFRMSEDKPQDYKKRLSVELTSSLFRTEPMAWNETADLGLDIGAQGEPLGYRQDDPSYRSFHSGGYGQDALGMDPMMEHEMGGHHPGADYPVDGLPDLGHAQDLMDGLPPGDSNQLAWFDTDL
Test: co-IP; lysates of platelet-co-cultured MCF-7 cells (PBS with 0.1% Triton X-100, then RIPA buffer); immune and preimmune sera with protein A-Sepharose beads, 14 h at 4 °C; western blotting
Conditions: remark: other sources report otherwise

B1: pSmad3, P84022 1-425 (protein)
chain: MSSILPFTPPIVKRLLGWKKGEQNGQEEKWCEKAVKSLVKKLKKTGQLDELEKAITTQNVNTKCITIPRSLDGRLQVSHRKGLPHVIYCRLWRWPDLHSHHELRAMELCEFAFNMKKDEVCVNPYHYQRVETPVLPPVLVPRHTEIPAEFPPLDDYSHSIPENTNFPAGIEPQSNIPETPPPGYLSEDGETSDHQMNHSMDAGSPNLSPNPMSPAHNNLDLQPVTYCEPAFWCSISYYELNQRVGETFHASQPSMTVDGFTDPSNSERFCLGLLSNVNRNAAVELTRRHIGRGVRLYYIGGEVFAECLSDSAIFVQSPNCNQRYGWHPATVCKIPPGCNLKIFNNQEFAALLAQSVNQGFEAVYQLTRMCTIRMSFVKGWGAEYRRQTVTSTPCWIELHLNGPLQWLDKVLTQMGSPSIRCSSVS
modifications: here or on the partner: phosphorylated (pSmad3); residues not stated
B1 was tested, and the binding was “binds”.
